Measured values published in PubChem BioAssay AID504444 (National Center for Advancing Translational Sciences (NCATS), 2011).
Among all 360,000 compounds or so, about 7,500 (2.1%) were called active. Inconclusive results, whose numbers are uncertain, are shown with a selection of clear calls. The call rests on the fitted dose curve; in most records, active means well fitted inhibition curve with a large enough effect; inconclusive means small, poorly fitted or top-dose-only effect, or effect the other way; inactive means flat fitted curve, though single readings scatter. Potencies beside an inconclusive call are fits to weak or partial responses and may not hold up.
On the % scale 0 is the no-effect control and ±100 the full control effect; potency means the concentration at half of the fitted maximal effect.

Test: Nrf2 qHTS screen for inhibitors; further: nearly all actives have a fitted effect of over 60% in size
Conditions: A549 ARE-Fluc reporter, luciferase luminescence, 18-24 h; activity change, negative = inhibition: at 46 µM (top of the series)
Summary of the method: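 Quantitative HTS in A549 cells stably bearing an antioxidant response element-firefly luciferase construct. Inhibition of Nrf2-driven transcription was scored by luminescence after 18-24 h of compound exposure at 37 °C.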
For `Cc1cccc(OCCCC(=O)Nc2ccc(N3CCOCC3)cc2)c1`, the Potency was inconclusive: 0.206 µM [falling, full curve, poor fit]. In the case of `O=c1c2sc3nc(N4CCOCC4)c4c(c3c2ncn1-c1ccccc1)CCCC4`, the Potency is reported as active: 13 µM. With `O=C(C1COc2ccccc2O1)N1CCN(Cc2ccc(Br)cc2F)CC1` (configuration not stated) the Potency was inconclusive: 29.1 µM [falling, single point]. In the case of `Cn1nccc1C(=O)NC1CCCc2c1cnn2-c1ccccc1F` (configuration not stated), the Potency is reported as inconclusive: 0.517 µM [falling, full curve, poor fit]. With `Cc1cccc(OCCC(=O)Nc2ccc(F)c(Cl)c2)c1` the Potency was inconclusive: 25.9 µM [falling, partial curve]. In the case of `CC1CN/C(=C\C(=O)c2ccc(Cl)cc2)C(=O)N1` (configuration not stated), the Potency is reported as inconclusive: 0.116 µM [activator, full curve, poor fit]. For `O=C(Nc1cccc(S(=O)(=O)N2CCCCC2)c1)C1CC(=O)N(Cc2ccccc2)C1` (configuration not stated), the Potency was inconclusive: 14.6 µM [falling, partial curve, poor fit]. With `CC(C)(CO)N=C1NS(=O)(=O)c2cc([N+](=O)[O-])ccc21` the Potency was inconclusive: 23.1 µM [falling, single point]. In the case of `COc1cccc(-c2nnc(NC(=O)c3ccc4ncsc4c3)o2)c1`, the Potency is reported as inconclusive: 18.4 µM [falling, partial curve]. With `C=CCNc1nc(-c2ccc(Cl)cc2)cs1` the Potency was inconclusive: 2.59 µM [activator, full curve]. With `Clc1ccc(CN(Cc2ccccc2)C(c2cccs2)c2nnnn2C2CCCC2)cc1` (configuration not stated) the Potency was inconclusive: 0.651 µM [falling, full curve, poor fit]. With `CCOc1ccc(C(=O)NCc2ccco2)cc1` the Potency was inconclusive: 29.1 µM [activator, single point]. For `CCOC(=O)[C@H]1[C@H]2COc3ccc(C)cc3[C@@H]2N2C(=O)c3cc(F)c(F)cc3NC(=O)[C@@]12C`, the Potency was inconclusive: 36.6 µM [falling, partial curve, poor fit]. For `Cc1cc(C(=S)N2CCOCC2)c(C)n1-c1ccc(F)cc1`, the “activity change, negative = inhibition” value was inactive: 10.3%. With `COc1ccc(-c2noc(CC(=O)Nc3cc(OC)ccc3OC)n2)cc1` the Potency was inconclusive: 29.1 µM [falling, single point]. For `O=C(OCc1ccccc1)/C(=C/c1cccc(Br)c1)NC(=O)c1ccco1`, the Potency was inconclusive: 25.9 µM [falling, single point]. In the case of `CN(C)c1ccc(SC#N)cc1`, the “activity change, negative = inhibition” value is reported as inactive: 9.06%. For `COC(=O)c1c(C)[nH]c(C(=O)OCC(=O)c2ccc(C)s2)c1C`, the Potency was inconclusive: 29.1 µM [falling, single point]. With `COc1ccccc1-c1cc(C(=O)Nc2cc(C)on2)no1` the “activity change, negative = inhibition” value was inactive: 20.8%. In the case of `O=C(CN1C(=O)c2ccccc2S1(=O)=O)Nc1ncc(Cl)cc1Cl`, the Potency is reported as inconclusive: 23.1 µM [falling, single point]. In the case of `COc1ccc(OC)c(NC(=O)Nc2cccc3ccccc23)c1`, the Potency is reported as inconclusive: 18.4 µM [falling, partial curve]. For `COc1ccc(-c2cn(Cc3ccc(C(N)=O)cc3)c(CCN)n2)cc1`, the Potency was inconclusive: 32.6 µM [activator, single point]. In the case of `CCCCN(C(=O)c1ccc(N2CCCC2=O)cc1)c1c(N)n(Cc2ccccc2)c(=O)[nH]c1=O`, the Potency is reported as active: 5.8 µM. In the case of `O=C(Nc1ccc(F)cc1)/C(Cl)=C/c1ccccc1`, the Potency is reported as inconclusive: 7.31 µM [activator, partial curve]. For `Cc1nc(-c2ccc(C(=O)Nc3ccccc3F)cc2)cs1`, the Potency was inconclusive: 0.731 µM [activator, partial curve]. With `CS(=O)(=O)c1cccc(C(=O)Nc2ccc(S(=O)(=O)N3CCCCC3)cc2)c1` the Potency was inconclusive: 23.1 µM [falling, partial curve, poor fit]. With `COC(=O)c1cc(S(=O)(=O)N2CCN(c3ccccc3F)CC2)c[nH]1` the Potency was inconclusive: 10.3 µM [falling, partial curve, poor fit]. With `CCC(C)(C)C1CCc2c(sc(N)c2C(N)=O)C1` (configuration not stated) the Potency was active: 18.4 µM. With `CCn1nnc2cc(C(=O)Nc3cc(C)ccc3C)ccc21` the Potency was inconclusive: 29.1 µM [falling, single point]. With `Cc1ccc(-c2noc(CN(C(=O)C34CC5CC(CC(C5)C3)C4)C(C)C)n2)cc1` the Potency was inconclusive: 29.1 µM [activator, single point]. For `CC(=O)c1ccc(NC(=O)CSc2nccn2C)cc1`, the Potency was inconclusive: 9.2 µM [activator, partial curve]. For `Nc1nc2ccc(C(=O)NC3CCCCC3)cc2s1`, the Potency was inconclusive: 6.51 µM [activator, partial curve]. For `COc1ccc(NC(=O)CC2C(=O)N(c3cccc(OC)c3)C(=O)N2CCC2=CCCCC2)cc1` (configuration not stated), the Potency was inconclusive: 23.1 µM [falling, single point]. In the case of `O=C(CSc1ccc(-c2ccco2)nn1)N1CCCCC1`, the Potency is reported as inconclusive: 20.6 µM [activator, single point]. In the case of `C=C(C)C1Cc2c(C)nn(-c3cccc4ccccc34)c2C1` (configuration not stated), the Potency is reported as inconclusive: 20.6 µM [falling, single point]. With `CCOc1ccc(-n2c(SCC(=O)Nc3ccc(CC)cc3)nc3n[nH]c(C)c3c2=N)cc1` the Potency was inconclusive: 20.6 µM [falling, single point]. With `COc1ccc(C(=O)NCc2ccc(-n3cccc3)cc2)cc1OC` the Potency was inconclusive: 25.9 µM [falling, partial curve, poor fit]. For `Cc1c(N2C(=O)/C(=C\C3CC=CCC3)SC2=S)c(=O)n(-c2ccccc2)n1C` (configuration not stated), the Potency was inconclusive: 18.4 µM [falling, partial curve, poor fit]. For `Cc1ccc(SCCC(=O)N/N=C/c2ccncc2)cc1`, the Potency was active: 14.6 µM. For `COc1ccc(C(=O)Nc2ccc(Cc3ccncc3)cc2)cc1Br`, the Potency was active: 18.4 µM. In the case of `Cc1ccc(/C=C/C2=NN(C)C(=O)CC2)cc1`, the Potency is reported as inconclusive: 1.64 µM [activator, full curve]. In the case of `O=C(Cn1cc(C(=O)c2ccccc2)c(=O)c2cc3c(cc21)OCCO3)Nc1ccc(F)c(F)c1`, the “activity change, negative = inhibition” value is reported as inactive: -4.83%.
